The chains behind the UniProt entries cited, without tags or fusion partners.
UniProt P56399: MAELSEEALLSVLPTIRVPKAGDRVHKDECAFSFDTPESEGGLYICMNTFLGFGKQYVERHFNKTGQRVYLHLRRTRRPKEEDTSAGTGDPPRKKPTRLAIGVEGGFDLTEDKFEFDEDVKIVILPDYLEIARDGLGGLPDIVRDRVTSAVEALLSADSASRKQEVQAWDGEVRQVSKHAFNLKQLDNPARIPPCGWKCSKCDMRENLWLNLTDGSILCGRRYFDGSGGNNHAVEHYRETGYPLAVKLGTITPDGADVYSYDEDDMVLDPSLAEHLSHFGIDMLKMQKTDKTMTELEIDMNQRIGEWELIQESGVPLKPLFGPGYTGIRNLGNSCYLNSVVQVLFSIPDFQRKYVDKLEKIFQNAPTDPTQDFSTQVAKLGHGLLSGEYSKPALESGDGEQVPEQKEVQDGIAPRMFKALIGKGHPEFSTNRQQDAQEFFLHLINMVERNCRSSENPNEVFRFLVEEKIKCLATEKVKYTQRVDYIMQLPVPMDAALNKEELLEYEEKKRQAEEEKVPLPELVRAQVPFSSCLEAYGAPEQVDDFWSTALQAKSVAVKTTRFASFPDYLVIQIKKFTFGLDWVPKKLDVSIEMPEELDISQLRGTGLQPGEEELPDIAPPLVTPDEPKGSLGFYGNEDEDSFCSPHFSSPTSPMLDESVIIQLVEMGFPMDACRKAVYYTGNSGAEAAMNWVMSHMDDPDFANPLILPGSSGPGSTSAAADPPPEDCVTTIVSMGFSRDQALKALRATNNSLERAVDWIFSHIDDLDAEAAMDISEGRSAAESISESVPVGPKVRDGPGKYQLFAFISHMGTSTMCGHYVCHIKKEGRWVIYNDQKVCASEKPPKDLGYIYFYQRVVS
UniProt O35864: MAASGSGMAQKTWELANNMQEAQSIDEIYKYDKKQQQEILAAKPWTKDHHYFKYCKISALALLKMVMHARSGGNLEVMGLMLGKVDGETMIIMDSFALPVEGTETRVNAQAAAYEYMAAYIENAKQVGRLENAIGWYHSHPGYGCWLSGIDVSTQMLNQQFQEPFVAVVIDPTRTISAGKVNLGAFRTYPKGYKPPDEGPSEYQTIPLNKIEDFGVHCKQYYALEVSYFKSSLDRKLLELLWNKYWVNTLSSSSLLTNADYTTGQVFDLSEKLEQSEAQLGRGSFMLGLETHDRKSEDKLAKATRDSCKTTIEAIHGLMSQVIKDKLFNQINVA
UniProt P52479: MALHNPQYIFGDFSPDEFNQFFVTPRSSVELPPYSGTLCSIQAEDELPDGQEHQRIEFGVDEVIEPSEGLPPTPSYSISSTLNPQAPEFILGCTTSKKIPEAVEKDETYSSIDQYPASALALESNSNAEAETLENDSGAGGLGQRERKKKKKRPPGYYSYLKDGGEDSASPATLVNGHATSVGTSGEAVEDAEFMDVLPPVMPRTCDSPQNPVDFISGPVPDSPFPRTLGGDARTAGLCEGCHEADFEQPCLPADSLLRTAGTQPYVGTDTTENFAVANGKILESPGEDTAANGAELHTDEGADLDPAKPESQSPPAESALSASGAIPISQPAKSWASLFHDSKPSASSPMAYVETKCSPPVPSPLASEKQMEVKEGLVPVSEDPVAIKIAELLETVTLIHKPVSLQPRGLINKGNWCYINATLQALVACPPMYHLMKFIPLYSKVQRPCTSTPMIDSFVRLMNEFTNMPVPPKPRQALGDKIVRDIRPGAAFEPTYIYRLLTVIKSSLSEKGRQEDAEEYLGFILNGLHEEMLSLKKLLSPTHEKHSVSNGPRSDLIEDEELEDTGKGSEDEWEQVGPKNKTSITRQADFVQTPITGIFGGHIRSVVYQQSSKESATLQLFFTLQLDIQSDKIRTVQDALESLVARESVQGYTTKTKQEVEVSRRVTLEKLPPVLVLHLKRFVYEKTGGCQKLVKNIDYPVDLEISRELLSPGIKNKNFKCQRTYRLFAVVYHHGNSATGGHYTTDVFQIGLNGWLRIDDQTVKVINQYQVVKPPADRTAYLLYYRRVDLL
UniProt Q9JMA1: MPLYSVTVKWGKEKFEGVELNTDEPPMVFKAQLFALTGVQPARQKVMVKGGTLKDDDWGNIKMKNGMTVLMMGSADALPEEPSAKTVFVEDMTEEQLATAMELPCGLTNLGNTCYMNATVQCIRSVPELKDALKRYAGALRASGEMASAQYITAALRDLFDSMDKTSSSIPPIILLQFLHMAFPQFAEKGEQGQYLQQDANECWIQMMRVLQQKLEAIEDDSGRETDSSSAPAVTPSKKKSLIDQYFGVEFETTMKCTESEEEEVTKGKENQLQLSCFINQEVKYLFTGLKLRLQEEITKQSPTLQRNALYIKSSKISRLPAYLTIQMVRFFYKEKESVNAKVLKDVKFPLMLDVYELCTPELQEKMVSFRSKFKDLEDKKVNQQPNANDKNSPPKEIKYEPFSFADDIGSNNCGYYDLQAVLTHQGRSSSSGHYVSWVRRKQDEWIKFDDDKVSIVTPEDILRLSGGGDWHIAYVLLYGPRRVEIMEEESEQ

In paper PMC12376700:

target: T1, SLC7A11 (mouse (endogenous in MLO-Y4)) (UniProt Q9WTR6); assay: affinity purification with mass spectrometry; anti-SLC7A11 antibody and protein A/G magnetic beads on MLO-Y4 lysate; SDS-PAGE, gel bands excised, LC-MS/MS; search against the Mus musculus database; hits cross-referenced with UbiBrowser
T1 sequence: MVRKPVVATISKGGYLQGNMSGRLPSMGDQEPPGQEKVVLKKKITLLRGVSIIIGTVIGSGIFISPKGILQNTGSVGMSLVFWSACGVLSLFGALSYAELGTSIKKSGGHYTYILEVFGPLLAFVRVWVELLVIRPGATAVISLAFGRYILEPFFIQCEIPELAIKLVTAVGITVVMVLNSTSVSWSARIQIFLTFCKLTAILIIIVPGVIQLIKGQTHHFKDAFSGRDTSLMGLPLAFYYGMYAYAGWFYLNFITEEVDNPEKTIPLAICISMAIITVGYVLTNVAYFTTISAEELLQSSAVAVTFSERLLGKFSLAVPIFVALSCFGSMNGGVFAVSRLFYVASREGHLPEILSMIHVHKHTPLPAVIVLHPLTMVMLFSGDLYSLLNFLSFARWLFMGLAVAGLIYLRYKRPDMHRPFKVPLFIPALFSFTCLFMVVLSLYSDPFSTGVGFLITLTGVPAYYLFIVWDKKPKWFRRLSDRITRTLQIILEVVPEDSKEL

binding, binds:
USP5 (from UniProt P56399 1-858) (enzyme)
COPS5 (from UniProt O35864 1-334) (enzyme)
USP10 (from UniProt P52479 1-792) (enzyme)
USP14 (from UniProt Q9JMA1 1-493) (enzyme)

Results are given in words; binding and its absence hold for the method and conditions named. In cells and extracts the contact can be indirect. A yes stands for co-enrichment or nearness to the bait. Other partners may have been found.
